Data: article PMC6677536 (2019)
Results are given in words; binding and its absence hold for the method and conditions named. In cells and extracts the contact can be indirect. Some results given as binding are weak or reduced against the parent protein; the word gives no strength.

Amino acid sequences for entries named in this document (tags omitted).
UniProt Q9VV73: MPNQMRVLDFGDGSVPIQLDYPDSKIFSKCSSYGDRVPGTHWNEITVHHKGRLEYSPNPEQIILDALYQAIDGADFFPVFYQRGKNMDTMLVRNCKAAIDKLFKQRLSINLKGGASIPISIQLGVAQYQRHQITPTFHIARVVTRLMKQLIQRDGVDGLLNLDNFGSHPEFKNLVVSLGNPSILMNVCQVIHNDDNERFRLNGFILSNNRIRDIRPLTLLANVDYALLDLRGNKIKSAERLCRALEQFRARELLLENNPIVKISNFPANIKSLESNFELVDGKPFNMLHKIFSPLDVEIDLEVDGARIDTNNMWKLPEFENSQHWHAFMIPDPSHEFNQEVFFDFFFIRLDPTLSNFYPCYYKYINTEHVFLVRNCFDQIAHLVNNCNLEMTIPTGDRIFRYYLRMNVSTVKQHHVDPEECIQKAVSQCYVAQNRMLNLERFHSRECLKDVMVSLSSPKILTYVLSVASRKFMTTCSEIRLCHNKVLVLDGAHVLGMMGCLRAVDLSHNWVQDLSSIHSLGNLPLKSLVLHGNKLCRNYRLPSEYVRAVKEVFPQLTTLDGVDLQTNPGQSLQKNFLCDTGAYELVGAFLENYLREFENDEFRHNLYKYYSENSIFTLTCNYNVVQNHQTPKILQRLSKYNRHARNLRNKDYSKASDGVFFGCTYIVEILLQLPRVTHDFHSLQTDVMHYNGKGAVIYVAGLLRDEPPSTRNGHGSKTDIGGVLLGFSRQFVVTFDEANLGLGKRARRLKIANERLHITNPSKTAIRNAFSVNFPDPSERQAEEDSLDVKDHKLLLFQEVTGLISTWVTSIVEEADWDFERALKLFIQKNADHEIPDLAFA

Target: Nxf2 expression construct in OSCs (D. melanogaster) (UniProt Q9VV73)
Assay: co-IP; FLAG-tag co-immunoprecipitation (anti-FLAG M2 magnetic beads, 2 hr at 4°C) from lysates of transfected OSCs; western blot

- binding: binds weakly
B1: Piwi in OSC lysate (protein, UniProt Q9VKM1 1-843)
chain: MADDQGRGRRRPLNEDDSSTSRGSGDGPRVKVFRGSSSGDPRADPRIEASRERRALEEAPRREGGPTERKPWGDQYDYLNTRPAELVSKKGTDGVPVMLQTNFFRLKTKPEWRIVHYHVEFEPSIENPRVRMGVLSNHANLLGSGYLFDGLQLFTTRKFEQEITVLSGKSKLDIEYKISIKFVGFISCAEPRFLQVLNLILRRSMKGLNLELVGRNLFDPRAKIEIREFKMELWPGYETSIRQHEKDILLGTEITHKVMRTETIYDIMRRCSHNPARHQDEVRVNVLDLIVLTDYNNRTYRINDVDFGQTPKSTFSCKGRDISFVEYYLTKYNIRIRDHNQPLLISKNRDKALKTNASELVVLIPELCRVTGLNAEMRSNFQLMRAMSSYTRMNPKQRTDRLRAFNHRLQNTPESVKVLRDWNMELDKNVTEVQGRIIGQQNIVFHNGKVPAGENADWQRHFRDQRMLTTPSDGLDRWAVIAPQRNSHELRTLLDSLYRAASGMGLRIRSPQEFIIYDDRTGTYVRAMDDCVRSDPKLILCLVPNDNAERYSSIKKRGYVDRAVPTQVVTLKTTKNRSLMSIATKIAIQLNCKLGYTPWMIELPLSGLMTIGFDIAKSTRDRKRAYGALIASMDLQQNSTYFSTVTECSAFDVLANTLWPMIAKALRQYQHEHRKLPSRIVFYRDGVSSGSLKQLFEFEVKDIIEKLKTEYARVQLSPPQLAYIVVTRSMNTRFFLNGQNPPPGTIVDDVITLPERYDFYLVSQQVRQGTVSPTSYNVLYSSMGLSPEKMQKLTYKMCHLYYNWSGTTRVPAVCQYAKKLATLVGTNLHSIPQNALEKKFYYL
